Results as given in patent publication US10316017B2, “COT modulators and methods of use thereof” (Gilead Sciences, Inc., priority 2015, dated 2019).
At least one structure is not confirmed: it was looked up by name or label, or the drawing left a doubt.

System: TNFα production in LPS-stimulated human monocytes
Assay: Cot Monocyte TNFα Cell Based Assay
Details: TNFα TR-FRET
Description: Example 60: Cot Monocyte TNFα Cell Based Assay
The cell suspension was then plated at a density of 5,000 cells/well onto black 384 well Greiner clear bottom plates. Plates were pre-spotted with test compounds and serially diluted in DMSO where 200 nL/well were delivered using the Echo 550 acoustic liquid dispenser (Labcyte®) for a final DMSO concentration of 0.5%. Plated cells were treated with compound for 1 hour at 37° C. Cells were then stimulated with 50 pg/ml of LPS (Sigma) excluding outside columns of plate used for unstimulated cell control wells. Cells were incubated for an additional 4 hours at 37° C. Cells were then spun out of the media and 5 ul of sample were taken and analyzed for total TNFα content using the TR-FRET Human TNFα detection system (CisBio). This system utilizes two labeled antibodies (cryptate and XL665) that bind to two different epitopes of the TNFα molecule and produce FRET signal proportional to the concentration of TNFα in the sample. Detection antibodies are mixed 50:50 and 5 μL were dispensed into each well. […] Percent of control was calculated as follows: % Control=100×(RatioSample−Ratio0% stimulation)/(Ratio100% Stimulation−Ratio0% Stimulation) where unstimulated cells (0% stimulation) were the negative control and stimulated cells (100% stimulation) were used as the positive control.

CC(C)(C)CNc1c(C#N)cnc2c(Cl)cc(N[C@@H](c3ccc(Cl)cc3)c3cn([C@H]4[C@@H]5CN(C6CC6)C[C@@H]54)nn3)cc12 [Example 980, 8-chloro-6-(((S)-(4-chlorophenyl)(1-((1R,5S,6s)-3-cyclopropyl-3-azabicyclo [3.1.0]hexan-6-yl)-1H-1,2,3-triazol-4-yl)methyl-d)amino)-4-(neopentylamino)quinoline-3-carbonitrile]
EC50: ≥ 1000 nM
